Measurements from publication PMC7179226, “Sulfonamide Inhibition Studies of the β-Class Carbonic Anhydrase CAS3 from the Filamentous Ascomycete Sordaria macrospora” (Molecules, 2020).

Amino acid sequences for entries named in this document (tags omitted).
UniProt F7VU04, entry or part of it: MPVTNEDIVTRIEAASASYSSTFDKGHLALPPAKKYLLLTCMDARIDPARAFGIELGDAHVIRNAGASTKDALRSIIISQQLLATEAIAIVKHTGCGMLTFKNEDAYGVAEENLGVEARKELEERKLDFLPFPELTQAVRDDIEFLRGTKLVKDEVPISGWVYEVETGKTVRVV

Target: T1, CAS3 (Sordaria macrospora, UniProt F7VU04)
T1 construct: gene SMAC_03179; primers imply N-terminus (M)MPVTNEE and C-terminus KTVRVV-LE-His6
Assay: stopped-flow CO2 hydration inhibition assay
Type: biochemical

Structure (SMILES): CCN[C@H]1C[C@H](C)S(=O)(=O)c2sc(S(N)(=O)=O)cc21 [DZA, dorzolamide]
- Ki: 274 ± 14 nM
